PubChem BioAssay AID504774, Drosophila RNAi Screening Center | 2011
Purpose: 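Knock-downs that shift viability of MMS-exposed cells relative to untreated ones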 (primary screen). System: Drosophila Kc167 cells. Reagents: long dsRNA against Drosophila genes, about 0.25 µg dsRNA per well. Duration: about 6 days: 3 days knock-down, then 3 days with or without MMS. Challenge: methyl methanesulphonate 0.004% (w/v) for 3 days after knock-down. Measurement: 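ATP-dependent luminescence as a measure of live cells in MMS-exposed wells, quantile normalised within each plate, with replicate values also given as a mean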. Direction: mean viability with MMS and viability with MMS: higher = more surviving cells after MMS.
The deposit covers about 23,000 reagents; shown is a random part of those with a known target gene and a result. 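Values are quantile-normalised luminescence on an arbitrary scale; higher means more cells surviving MMS.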 The numbers tell different reagents against one gene apart. Further read-outs or replicates are left out here.

ytr (yantar) #1 — mean viability with MMS = 3.54e6; viability with MMS, replicate 1 = 4.00e6
ytr (yantar) #2 — mean viability with MMS = 3.57e6; viability with MMS, replicate 1 = 4.08e6
nau (nautilus) — mean viability with MMS = 3.71e6; viability with MMS, replicate 1 = 4.30e6
CG9192 — mean viability with MMS = 3.55e6; viability with MMS, replicate 1 = 4.08e6
sds22 — mean viability with MMS = 3.42e6; viability with MMS, replicate 1 = 3.93e6
CG13876 — mean viability with MMS = 3.61e6; viability with MMS, replicate 1 = 4.14e6
Tcs4 (Threonyl-carbamoyl synthesis 4) — mean viability with MMS = 3.60e6; viability with MMS, replicate 1 = 4.05e6
Gr58a (Gustatory receptor 58a) — mean viability with MMS = 3.53e6; viability with MMS, replicate 1 = 3.99e6
ZnT86D (Zinc transporter 86D) — mean viability with MMS = 3.64e6; viability with MMS, replicate 1 = 4.12e6

The list goes on; the last 2 above are carried over.
Gr58a (Gustatory receptor 58a) — mean viability with MMS = 3.53e6; viability with MMS, replicate 1 = 3.99e6
ZnT86D (Zinc transporter 86D) — mean viability with MMS = 3.64e6; viability with MMS, replicate 1 = 4.12e6
frtz (fritz) — mean viability with MMS = 3.41e6; viability with MMS, replicate 1 = 3.87e6
Iml1 (Increased minichromosome loss 1) — mean viability with MMS = 3.70e6; viability with MMS, replicate 1 = 4.06e6
btv (beethoven) #1 — mean viability with MMS = 3.41e6; viability with MMS, replicate 1 = 3.82e6
btv (beethoven) #2 — mean viability with MMS = 3.54e6; viability with MMS, replicate 1 = 3.91e6
smash (smallish) #1 — mean viability with MMS = 3.39e6; viability with MMS, replicate 1 = 3.91e6
smash (smallish) #2 — mean viability with MMS = 3.47e6; viability with MMS, replicate 1 = 3.91e6
